In article PMC5927464 (2018):
These are yes or no findings as the source states them, for the method shown. Binding seen in cells or lysates may run through a third protein.

Protein sequences, listed by entry. Tags and fused reporters are not part of them. Lines headed by an entry give the natural chain unless they say otherwise; changes in a name come on top.
UniProt Q05921: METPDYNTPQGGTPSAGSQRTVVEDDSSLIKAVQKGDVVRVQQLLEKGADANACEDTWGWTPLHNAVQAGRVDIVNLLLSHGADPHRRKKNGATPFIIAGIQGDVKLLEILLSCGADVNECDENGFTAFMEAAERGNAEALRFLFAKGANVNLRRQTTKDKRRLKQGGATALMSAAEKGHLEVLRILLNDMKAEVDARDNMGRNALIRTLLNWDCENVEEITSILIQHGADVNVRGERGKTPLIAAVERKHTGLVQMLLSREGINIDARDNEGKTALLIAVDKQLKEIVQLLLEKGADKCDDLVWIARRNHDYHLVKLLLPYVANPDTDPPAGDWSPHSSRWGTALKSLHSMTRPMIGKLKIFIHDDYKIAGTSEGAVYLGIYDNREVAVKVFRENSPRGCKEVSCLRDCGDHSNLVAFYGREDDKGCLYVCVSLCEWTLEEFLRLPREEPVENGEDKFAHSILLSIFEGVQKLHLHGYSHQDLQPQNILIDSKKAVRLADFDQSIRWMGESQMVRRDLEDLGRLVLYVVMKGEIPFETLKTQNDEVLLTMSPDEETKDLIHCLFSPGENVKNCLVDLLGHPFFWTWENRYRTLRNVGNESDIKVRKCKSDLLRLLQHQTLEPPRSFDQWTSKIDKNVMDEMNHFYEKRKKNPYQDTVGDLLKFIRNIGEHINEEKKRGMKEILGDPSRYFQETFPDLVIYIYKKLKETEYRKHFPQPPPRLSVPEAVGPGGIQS

Molecular target: C-terminally Flag-tagged mouse RNase L K391R (dimerization-defective) (mouse) (UniProt Q05921)
Test: cross-linking; lysates of 293T cells overexpressing RNase L-Flag with or without L* (HEPES 20 mM pH 7.5, NaCl 100 mM, NP40 0.5%, EDTA 2 mM); 2-5A added (0.25 to 8 μM ATP equivalent), 10 min at 37°C; 5 mM DSS for 30 min; anti-Flag immunoblot of monomers, dimers and oligomers

C-terminally Flag-tagged mouse RNase L K391R (dimerization-defective) (from UniProt Q05921 1-735) (enzyme)
binding: no binding
